In this experiment the target is ryanodine receptor 1 (mouse (endogenous in gastrocnemius muscle)) (UniProt E9PZQ0). As to the kind of experiment: co-IP; RyR1 immunoprecipitated with anti-RyR1 monoclonal antibody and Protein A/G-agarose from gastrocnemius muscle homogenate (50 mM Tris HCl pH 7.4, 0.15 M NaCl, 0.5% Triton X-100), 4°C; blot for calstabin 1; muscle of Nox4 f/f and Nox4 cKO mice, sham or 56 days after SCI.

Sequences of proteins named here, by UniProt entry; tags and fusion partners are left off.
UniProt E9PZQ0: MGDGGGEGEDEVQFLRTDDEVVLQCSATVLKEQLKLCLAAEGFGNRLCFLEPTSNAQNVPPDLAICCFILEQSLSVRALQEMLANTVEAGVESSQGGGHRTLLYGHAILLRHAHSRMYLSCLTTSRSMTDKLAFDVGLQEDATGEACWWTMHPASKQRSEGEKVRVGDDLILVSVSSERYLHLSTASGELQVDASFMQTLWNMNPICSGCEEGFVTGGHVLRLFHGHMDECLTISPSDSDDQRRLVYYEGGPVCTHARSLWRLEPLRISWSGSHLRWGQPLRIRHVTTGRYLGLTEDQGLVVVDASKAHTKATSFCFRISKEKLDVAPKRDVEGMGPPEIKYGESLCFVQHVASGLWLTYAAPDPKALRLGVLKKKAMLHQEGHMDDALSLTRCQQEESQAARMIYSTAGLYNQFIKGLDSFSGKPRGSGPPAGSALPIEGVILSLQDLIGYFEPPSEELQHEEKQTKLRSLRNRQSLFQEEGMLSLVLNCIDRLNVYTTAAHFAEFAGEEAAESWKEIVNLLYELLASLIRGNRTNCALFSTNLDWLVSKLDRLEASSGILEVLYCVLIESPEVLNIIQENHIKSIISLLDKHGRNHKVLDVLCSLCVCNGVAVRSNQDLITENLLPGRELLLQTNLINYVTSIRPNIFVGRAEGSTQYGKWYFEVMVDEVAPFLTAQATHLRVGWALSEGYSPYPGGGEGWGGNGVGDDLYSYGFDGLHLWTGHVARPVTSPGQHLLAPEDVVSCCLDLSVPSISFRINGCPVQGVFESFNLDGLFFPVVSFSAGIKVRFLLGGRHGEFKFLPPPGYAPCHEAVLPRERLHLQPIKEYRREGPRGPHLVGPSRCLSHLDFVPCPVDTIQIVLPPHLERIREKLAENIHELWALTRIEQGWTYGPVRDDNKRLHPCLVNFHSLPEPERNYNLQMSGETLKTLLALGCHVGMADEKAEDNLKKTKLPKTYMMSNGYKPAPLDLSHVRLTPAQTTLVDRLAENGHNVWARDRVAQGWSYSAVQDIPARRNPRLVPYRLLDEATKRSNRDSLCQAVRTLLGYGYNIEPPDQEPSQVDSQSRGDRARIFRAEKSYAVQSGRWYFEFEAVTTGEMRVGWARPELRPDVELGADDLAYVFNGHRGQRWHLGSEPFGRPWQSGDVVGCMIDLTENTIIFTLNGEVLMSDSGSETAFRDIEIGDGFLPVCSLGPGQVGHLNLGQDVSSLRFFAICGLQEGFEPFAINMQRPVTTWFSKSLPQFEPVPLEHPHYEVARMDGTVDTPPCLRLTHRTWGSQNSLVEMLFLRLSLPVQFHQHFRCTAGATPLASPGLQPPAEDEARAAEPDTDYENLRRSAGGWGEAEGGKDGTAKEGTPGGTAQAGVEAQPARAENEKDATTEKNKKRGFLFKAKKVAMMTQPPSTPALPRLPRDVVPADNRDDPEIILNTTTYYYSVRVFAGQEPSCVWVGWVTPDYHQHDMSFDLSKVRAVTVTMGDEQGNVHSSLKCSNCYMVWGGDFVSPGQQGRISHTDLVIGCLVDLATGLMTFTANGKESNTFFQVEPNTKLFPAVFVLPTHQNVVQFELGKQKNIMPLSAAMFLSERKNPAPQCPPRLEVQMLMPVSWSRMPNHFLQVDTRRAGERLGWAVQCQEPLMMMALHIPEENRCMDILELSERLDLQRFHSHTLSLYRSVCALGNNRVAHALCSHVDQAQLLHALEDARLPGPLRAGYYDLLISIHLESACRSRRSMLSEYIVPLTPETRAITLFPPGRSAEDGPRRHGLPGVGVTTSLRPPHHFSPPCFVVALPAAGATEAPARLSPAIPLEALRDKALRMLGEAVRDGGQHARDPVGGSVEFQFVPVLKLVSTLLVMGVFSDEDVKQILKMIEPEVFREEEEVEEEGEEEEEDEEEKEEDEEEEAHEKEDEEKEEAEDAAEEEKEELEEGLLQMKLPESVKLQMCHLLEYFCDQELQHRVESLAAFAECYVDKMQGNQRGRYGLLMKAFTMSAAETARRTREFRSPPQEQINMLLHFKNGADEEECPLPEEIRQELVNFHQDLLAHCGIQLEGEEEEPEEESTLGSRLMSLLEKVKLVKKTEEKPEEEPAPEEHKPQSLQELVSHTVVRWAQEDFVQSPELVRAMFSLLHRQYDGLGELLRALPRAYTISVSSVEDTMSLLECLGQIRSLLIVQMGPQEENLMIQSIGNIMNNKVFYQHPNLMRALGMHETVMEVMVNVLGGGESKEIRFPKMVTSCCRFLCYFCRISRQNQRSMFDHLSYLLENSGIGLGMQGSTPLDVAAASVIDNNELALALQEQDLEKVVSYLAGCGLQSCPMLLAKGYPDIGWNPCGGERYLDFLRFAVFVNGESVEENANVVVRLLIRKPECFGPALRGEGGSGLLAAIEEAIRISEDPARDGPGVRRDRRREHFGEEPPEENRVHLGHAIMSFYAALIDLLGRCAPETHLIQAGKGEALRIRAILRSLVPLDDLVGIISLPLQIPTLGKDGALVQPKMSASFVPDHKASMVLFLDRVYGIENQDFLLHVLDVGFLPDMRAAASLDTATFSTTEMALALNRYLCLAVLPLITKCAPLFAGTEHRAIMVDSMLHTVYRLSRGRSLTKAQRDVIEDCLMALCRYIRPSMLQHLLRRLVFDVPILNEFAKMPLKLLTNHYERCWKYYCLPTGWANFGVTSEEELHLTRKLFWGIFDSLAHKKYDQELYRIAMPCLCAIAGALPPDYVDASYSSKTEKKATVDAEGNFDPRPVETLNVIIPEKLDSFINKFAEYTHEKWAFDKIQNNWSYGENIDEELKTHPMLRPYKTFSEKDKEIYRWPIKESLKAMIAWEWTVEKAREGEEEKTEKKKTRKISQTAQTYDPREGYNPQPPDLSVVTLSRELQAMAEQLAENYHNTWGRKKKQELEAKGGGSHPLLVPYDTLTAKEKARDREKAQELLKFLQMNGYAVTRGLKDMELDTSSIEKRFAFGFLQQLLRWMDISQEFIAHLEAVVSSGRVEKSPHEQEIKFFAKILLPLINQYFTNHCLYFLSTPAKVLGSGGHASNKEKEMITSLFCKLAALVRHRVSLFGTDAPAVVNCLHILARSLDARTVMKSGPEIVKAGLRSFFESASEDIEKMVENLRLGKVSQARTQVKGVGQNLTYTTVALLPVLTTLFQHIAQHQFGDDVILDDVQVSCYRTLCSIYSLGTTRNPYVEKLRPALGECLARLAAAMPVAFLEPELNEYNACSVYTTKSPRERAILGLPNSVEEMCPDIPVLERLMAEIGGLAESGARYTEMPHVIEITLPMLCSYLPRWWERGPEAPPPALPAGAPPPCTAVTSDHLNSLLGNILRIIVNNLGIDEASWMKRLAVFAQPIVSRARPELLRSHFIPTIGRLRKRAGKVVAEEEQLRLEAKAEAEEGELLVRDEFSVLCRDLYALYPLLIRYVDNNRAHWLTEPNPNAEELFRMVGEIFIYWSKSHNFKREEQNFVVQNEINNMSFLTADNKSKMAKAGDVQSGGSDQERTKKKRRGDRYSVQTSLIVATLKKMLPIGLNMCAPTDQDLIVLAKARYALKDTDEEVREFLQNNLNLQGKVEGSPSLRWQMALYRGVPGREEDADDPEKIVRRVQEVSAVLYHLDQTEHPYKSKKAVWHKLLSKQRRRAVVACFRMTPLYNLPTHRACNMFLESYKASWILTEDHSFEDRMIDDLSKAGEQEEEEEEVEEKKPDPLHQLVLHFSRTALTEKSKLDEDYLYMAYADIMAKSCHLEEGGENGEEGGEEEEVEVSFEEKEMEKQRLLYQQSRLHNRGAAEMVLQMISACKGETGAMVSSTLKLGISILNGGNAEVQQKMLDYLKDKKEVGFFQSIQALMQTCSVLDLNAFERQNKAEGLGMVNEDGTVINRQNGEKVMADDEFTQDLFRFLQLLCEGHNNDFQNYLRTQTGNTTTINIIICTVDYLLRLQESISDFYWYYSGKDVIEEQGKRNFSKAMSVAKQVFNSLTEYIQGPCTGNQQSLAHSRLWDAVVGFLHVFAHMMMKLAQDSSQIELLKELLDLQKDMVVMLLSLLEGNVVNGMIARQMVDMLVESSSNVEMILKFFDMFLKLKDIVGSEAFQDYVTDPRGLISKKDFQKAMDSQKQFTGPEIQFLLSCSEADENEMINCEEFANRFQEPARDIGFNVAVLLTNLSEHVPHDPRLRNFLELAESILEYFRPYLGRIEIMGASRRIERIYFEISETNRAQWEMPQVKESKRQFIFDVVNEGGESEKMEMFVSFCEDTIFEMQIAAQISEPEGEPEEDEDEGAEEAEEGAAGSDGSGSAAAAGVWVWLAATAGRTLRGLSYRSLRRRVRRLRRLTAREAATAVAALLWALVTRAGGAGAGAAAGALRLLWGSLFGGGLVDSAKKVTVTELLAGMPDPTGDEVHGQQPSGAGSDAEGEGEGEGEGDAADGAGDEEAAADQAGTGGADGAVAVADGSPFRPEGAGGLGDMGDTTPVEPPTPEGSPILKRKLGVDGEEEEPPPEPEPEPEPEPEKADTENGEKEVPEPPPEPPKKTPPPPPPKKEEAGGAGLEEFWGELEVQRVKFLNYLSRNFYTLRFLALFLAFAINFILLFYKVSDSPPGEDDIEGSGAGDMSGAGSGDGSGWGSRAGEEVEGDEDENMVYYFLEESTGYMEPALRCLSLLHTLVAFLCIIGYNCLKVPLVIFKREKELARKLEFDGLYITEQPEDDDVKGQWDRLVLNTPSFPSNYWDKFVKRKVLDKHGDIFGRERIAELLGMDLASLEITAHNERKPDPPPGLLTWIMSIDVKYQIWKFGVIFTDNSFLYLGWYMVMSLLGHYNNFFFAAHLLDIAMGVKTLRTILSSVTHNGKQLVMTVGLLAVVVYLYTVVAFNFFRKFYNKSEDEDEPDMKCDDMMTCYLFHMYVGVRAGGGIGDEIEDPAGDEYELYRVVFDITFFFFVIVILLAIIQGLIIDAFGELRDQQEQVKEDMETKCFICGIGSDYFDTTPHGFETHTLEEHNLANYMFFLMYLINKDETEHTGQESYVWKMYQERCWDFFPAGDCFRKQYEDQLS
UniProt P26883: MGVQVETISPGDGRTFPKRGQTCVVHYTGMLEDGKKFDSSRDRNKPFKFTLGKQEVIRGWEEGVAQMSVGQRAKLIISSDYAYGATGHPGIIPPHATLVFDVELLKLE

Among the data in paper PMC12574660 are binding values, retold here.

These are yes or no findings as the source states them, for the method shown. Binding seen in cells or lysates may run through a third protein. Some binding calls cover weakened binding; strength is not graded here.

calstabin 1 (from UniProt P26883 1-108): the binding entry is on record as “binds”.
